From article PMC12329599, “Acetylation of microtubule-binding PinX1 orchestrates ribosome biogenesis to nutrient starvation via the RNA polymerase I preinitiation complex” (The Journal of Biological Chemistry, 2025)
Results are given in words; binding and its absence hold for the method and conditions named. For some of these results: In cells and extracts the contact can be indirect. Some binding calls cover weakened binding; strength is not graded here. Where a sequence is shown, tags or fusion partners need not be part of it.

Chains of the proteins cited; added tags and fusions are not shown.
UniProt Q92793: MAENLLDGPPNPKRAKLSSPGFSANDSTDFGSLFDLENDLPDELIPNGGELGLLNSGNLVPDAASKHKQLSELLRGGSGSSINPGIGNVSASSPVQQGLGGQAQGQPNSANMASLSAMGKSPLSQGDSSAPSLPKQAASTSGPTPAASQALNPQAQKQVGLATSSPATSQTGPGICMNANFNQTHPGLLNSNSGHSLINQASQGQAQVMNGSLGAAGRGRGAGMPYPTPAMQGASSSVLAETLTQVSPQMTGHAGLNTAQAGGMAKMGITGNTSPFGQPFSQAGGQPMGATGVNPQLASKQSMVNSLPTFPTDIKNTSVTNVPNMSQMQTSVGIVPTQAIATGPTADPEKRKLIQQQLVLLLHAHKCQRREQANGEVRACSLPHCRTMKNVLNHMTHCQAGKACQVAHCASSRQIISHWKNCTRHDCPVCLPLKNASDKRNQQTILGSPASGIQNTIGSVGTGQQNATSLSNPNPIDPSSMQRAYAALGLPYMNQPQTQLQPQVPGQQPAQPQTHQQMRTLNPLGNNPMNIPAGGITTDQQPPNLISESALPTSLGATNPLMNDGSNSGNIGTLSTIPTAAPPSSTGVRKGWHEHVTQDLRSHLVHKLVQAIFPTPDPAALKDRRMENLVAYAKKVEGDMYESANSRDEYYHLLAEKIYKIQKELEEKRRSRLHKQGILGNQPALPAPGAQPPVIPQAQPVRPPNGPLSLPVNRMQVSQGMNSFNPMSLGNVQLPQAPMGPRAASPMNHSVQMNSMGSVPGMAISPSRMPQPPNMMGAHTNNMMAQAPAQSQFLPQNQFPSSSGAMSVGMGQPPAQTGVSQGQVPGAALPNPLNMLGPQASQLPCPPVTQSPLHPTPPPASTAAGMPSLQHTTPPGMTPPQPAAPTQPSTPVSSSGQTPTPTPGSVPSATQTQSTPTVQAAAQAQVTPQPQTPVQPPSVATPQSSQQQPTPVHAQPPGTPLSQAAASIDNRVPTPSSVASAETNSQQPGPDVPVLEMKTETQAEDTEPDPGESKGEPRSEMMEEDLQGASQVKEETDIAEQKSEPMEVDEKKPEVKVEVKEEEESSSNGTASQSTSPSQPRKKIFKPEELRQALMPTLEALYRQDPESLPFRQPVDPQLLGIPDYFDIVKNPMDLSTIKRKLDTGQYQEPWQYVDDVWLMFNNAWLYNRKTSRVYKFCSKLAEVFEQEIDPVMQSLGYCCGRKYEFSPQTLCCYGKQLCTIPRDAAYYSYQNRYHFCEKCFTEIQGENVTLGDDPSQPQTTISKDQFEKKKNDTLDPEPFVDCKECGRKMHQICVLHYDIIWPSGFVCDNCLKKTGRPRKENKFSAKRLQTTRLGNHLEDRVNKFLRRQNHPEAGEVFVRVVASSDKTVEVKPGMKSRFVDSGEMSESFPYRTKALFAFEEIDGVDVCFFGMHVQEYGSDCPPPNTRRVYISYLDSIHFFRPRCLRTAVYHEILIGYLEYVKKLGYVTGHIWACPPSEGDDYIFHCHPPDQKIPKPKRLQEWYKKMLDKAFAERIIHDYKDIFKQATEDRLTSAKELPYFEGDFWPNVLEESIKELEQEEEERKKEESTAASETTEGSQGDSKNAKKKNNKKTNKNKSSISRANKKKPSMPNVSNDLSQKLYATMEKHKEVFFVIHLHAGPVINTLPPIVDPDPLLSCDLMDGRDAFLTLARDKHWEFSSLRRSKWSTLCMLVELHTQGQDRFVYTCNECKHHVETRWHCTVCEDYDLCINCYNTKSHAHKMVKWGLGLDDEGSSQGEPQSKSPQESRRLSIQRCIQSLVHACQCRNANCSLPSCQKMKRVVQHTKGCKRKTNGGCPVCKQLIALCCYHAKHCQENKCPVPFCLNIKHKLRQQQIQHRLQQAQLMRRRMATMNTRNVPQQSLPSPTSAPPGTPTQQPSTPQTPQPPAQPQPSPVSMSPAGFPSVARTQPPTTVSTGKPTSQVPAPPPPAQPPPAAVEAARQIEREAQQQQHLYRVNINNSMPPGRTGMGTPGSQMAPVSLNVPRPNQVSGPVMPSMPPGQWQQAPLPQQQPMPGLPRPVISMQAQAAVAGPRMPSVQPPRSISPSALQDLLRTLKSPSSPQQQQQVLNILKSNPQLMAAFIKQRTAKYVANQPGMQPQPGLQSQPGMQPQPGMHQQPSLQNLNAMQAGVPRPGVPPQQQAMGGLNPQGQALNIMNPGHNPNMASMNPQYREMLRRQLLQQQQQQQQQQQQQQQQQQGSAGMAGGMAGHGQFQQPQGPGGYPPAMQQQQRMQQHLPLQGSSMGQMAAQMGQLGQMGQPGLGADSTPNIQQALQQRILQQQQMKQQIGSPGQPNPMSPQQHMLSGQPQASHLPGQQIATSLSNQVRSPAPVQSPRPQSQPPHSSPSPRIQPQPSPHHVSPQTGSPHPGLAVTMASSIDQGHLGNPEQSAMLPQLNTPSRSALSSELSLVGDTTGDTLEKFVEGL
UniProt O15379: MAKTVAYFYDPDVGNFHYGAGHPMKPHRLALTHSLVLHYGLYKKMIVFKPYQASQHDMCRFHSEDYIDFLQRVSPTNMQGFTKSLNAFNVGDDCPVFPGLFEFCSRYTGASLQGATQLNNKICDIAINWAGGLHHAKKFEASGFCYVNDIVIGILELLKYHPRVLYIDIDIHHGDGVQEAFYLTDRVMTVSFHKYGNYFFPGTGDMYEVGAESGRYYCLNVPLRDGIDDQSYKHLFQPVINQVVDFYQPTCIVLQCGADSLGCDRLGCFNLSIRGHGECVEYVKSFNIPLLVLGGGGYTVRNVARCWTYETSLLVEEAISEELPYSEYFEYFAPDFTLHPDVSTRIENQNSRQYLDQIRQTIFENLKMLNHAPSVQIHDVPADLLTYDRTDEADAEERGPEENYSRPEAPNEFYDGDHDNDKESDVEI
UniProt O15446: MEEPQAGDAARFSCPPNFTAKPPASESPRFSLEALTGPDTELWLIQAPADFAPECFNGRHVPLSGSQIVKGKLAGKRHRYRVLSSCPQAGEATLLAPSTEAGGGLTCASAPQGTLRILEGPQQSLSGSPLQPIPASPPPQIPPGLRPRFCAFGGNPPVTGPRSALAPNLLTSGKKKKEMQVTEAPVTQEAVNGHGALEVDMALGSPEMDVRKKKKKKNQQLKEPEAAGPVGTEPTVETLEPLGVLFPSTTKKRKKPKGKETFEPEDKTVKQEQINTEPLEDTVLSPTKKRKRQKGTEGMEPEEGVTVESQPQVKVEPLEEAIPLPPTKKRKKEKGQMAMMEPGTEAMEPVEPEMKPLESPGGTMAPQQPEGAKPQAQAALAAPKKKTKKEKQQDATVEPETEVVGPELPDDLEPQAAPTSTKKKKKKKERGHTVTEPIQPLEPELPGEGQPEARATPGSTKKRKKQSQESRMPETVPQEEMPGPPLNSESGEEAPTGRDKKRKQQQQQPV
UniProt P06748: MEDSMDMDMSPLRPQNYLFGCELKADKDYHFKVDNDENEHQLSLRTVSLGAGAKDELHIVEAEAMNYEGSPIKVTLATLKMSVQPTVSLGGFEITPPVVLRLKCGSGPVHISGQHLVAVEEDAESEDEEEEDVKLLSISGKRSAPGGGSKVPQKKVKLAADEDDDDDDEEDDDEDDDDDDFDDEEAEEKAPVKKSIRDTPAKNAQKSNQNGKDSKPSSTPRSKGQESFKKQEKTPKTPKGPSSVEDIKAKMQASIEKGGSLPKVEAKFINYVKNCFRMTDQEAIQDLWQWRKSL

What was measured:
[1] = target: T1, PinX1-3×Flag wild type, expressed in HCT116 cells (human) (UniProt Q96BK5); assay: co-IP; HCT116 cells transfected with both partners, with or without EBSS treatment (time course); lysis in BC100 buffer (100 mM NaCl, 20 mM Tris-HCl pH 7.9, 20% glycerol, 0.2% NP-40), beads at 4 °C overnight, Western blot
T1 sequence: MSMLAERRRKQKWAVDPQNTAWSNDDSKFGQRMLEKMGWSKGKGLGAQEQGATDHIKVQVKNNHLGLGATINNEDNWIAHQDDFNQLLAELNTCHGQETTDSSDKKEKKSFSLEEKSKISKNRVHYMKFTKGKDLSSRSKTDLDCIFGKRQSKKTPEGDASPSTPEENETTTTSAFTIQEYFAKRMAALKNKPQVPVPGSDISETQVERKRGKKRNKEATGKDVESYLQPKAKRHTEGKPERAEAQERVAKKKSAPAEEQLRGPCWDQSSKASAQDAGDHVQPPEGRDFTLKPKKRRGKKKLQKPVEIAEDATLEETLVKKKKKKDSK

[2] = target: T2, PinX1-3×Flag wild type (PIN2/TRF1-interacting telomerase inhibitor 1), expressed in HEK293T cells (human) (UniProt Q96BK5); assay: co-IP; HEK293T cells transfected with both tagged partners; lysis in BC100 buffer, beads at 4 °C overnight, Western blot
T2 sequence: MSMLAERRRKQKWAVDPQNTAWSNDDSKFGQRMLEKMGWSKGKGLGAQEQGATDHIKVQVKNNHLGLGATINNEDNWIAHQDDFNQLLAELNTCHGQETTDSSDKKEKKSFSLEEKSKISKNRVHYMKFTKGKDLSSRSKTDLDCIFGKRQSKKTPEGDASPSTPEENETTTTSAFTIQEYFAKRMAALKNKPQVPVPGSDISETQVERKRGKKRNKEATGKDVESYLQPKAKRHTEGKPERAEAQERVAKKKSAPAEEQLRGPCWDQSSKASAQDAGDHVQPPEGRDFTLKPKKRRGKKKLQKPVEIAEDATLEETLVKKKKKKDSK

[3] = target: T3, GST-PinX1 full-length (human) (UniProt Q96BK5); assay: pull-down; GST-PinX1 proteins on glutathione beads incubated with purified Strep2- or HA-tagged proteins in BC200 buffer (200 mM NaCl, 20 mM Tris-HCl pH 7.9, 20% glycerol, 0.2% NP-40) at 4 °C overnight; washed with BC500, BC200 or BC100; Western blot; both purified
T3 sequence: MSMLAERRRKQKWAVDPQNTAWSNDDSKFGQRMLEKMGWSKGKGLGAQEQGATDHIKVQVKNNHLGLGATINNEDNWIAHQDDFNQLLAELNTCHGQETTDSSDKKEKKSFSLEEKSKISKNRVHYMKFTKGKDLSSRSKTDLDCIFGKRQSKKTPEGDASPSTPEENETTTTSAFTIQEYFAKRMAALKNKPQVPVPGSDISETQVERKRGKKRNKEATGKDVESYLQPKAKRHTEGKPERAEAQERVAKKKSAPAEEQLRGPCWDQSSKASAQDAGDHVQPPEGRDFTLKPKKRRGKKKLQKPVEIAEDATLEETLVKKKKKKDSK

[4] = target: T4, GFP-PinX1 wild type, expressed in HEK293T cells (human) (UniProt Q96BK5); assay: co-IP; HEK293T cells transfected with both tagged partners; lysis in BC100 buffer, beads at 4 °C overnight, Western blot
T4 sequence: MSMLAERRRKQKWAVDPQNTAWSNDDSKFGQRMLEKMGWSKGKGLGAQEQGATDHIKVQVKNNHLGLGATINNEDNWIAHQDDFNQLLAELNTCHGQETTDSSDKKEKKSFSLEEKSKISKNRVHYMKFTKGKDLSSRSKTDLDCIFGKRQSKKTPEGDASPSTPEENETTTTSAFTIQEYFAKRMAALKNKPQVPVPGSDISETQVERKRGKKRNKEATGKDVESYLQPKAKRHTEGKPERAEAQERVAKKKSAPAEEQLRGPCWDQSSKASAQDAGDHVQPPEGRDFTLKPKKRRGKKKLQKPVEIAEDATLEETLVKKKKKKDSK

[5] = target: T4, GFP-PinX1 wild type, expressed in HEK293T cells (human); assay: co-IP; HEK293T cells transfected with GFP-tagged PinX1; endogenous partners detected by Western blot; BC100 buffer

## HA-CBP, expressed in HCT116 cells (from UniProt Q92793 1-2442) (enzyme)
[1]
  binding: binds

## HA-HDAC3 (from UniProt O15379 1-428) (enzyme)
[2]
  binding: binds
[3]
  binding: binds

## HA-POLR1G (RNA polymerase I subunit G), expressed in HCT116 cells (from UniProt O15446 1-510)
[1]
  binding: binds

## HA-POLR1G (RNA polymerase I subunit G), expressed in HEK293T cells (from UniProt O15446 1-510)
[4]
  binding: binds
[2]
  binding: binds

## NPM, endogenous in HEK293T cells (from UniProt P06748 1-294)
[5]
  binding: binds

B1: HA-DDX21 (protein, UniProt Q9NR30 1-783)
chain: MPGKLRSDAGLESDTAMKKGETLRKQTEEKEKKEKPKSDKTEEIAEEEETVFPKAKQVKKKAEPSEVDMNSPKSKKAKKKEEPSQNDISPKTKSLRKKKEPIEKKVVSSKTKKVTKNEEPSEEEIDAPKPKKMKKEKEMNGETREKSPKLKNGFPHPEPDCNPSEAASEESNSEIEQEIPVEQKEGAFSNFPISEETIKLLKGRGVTFLFPIQAKTFHHVYSGKDLIAQARTGTGKTFSFAIPLIEKLHGELQDRKRGRAPQVLVLAPTRELANQVSKDFSDITKKLSVACFYGGTPYGGQFERMRNGIDILVGTPGRIKDHIQNGKLDLTKLKHVVLDEVDQMLDMGFADQVEEILSVAYKKDSEDNPQTLLFSATCPHWVFNVAKKYMKSTYEQVDLIGKKTQKTAITVEHLAIKCHWTQRAAVIGDVIRVYSGHQGRTIIFCETKKEAQELSQNSAIKQDAQSLHGDIPQKQREITLKGFRNGSFGVLVATNVAARGLDIPEVDLVIQSSPPKDVESYIHRSGRTGRAGRTGVCICFYQHKEEYQLVQVEQKAGIKFKRIGVPSATEIIKASSKDAIRLLDSVPPTAISHFKQSAEKLIEEKGAVEALAAALAHISGATSVDQRSLINSNVGFVTMILQCSIEMPNISYAWKELKEQLGEEIDSKVKGMVFLKGKLGVCFDVPTASVTEIQEKWHDSRRWQLSVATEQPELEGPREGYGGFRGQREGSRGFRGQRDGNRRFRGQREGSRGPRGQRSGGGNKSNRSQNKGQKRSFSKAFGQ
[4]
  binding: binds

B2: HA-HDAC10 (enzyme, UniProt Q969S8 1-669)
chain: MGTALVYHEDMTATRLLWDDPECEIERPERLTAALDRLRQRGLEQRCLRLSAREASEEELGLVHSPEYVSLVRETQVLGKEELQALSGQFDAIYFHPSTFHCARLAAGAGLQLVDAVLTGAVQNGLALVRPPGHHGQRAAANGFCVFNNVAIAAAHAKQKHGLHRILVVDWDVHHGQGIQYLFEDDPSVLYFSWHRYEHGRFWPFLRESDADAVGRGQGLGFTVNLPWNQVGMGNADYVAAFLHLLLPLAFEFDPELVLVSAGFDSAIGDPEGQMQATPECFAHLTQLLQVLAGGRVCAVLEGGYHLESLAESVCMTVQTLLGDPAPPLSGPMAPCQSALESIQSARAAQAPHWKSLQQQDVTAVPMSPSSHSPEGRPPPLLPGGPVCKAAASAPSSLLDQPCLCPAPSVRTAVALTTPDITLVLPPDVIQQEASALREETEAWARPHESLAREEALTALGKLLYLLDGMLDGQVNSGIAATPASAAAATLDVAVRRGLSHGAQRLLCVALGQLDRPPDLAHDGRSLWLNIRGKEAAALSMFHVSTPLPVMTGGFLSCILGLVLPLAYGFQPDLVLVALGPGHGLQGPHAALLAAMLRGLAGGRVLALLEENSTPQLAGILARVLNGEAPPSLGPSSVASPEDVQALMYLRGQLEPQWKMLQCHPHLVA
[2]
  binding: binds
[3]
  binding: binds
